PubChem BioAssay AID504444 (National Center for Advancing Translational Sciences (NCATS), 2011)
Among all 360,000 compounds or so, about 7,500 (2.1%) were called active. This list was built around the results that the source calls inconclusive (neither active nor inactive); the mix of calls is not that of the screen. The call rests on the fitted dose curve; in most records, active means well fitted inhibition curve with a large enough effect; inconclusive means small, poorly fitted or top-dose-only effect, or effect the other way; inactive means flat fitted curve, though single readings scatter. A potency beside an inconclusive call is a rough fit, not a confirmed value.

Test: Nrf2 qHTS screen for inhibitors; further: nearly all actives have a fitted effect of over 60% in size
Conditions: A549 ARE-Fluc reporter, luciferase luminescence, 18-24 h; series mostly up to 46 µM
Method in brief: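 Two sequential reads on A549 ARE_Fluc cells exposed to compound for 18-24 h: a CellTiter-Fluor fluorescence read for viability, then a luciferase luminescence read for Nrf2/ARE activity.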
Potency means the concentration at half of the fitted maximal effect.

| SMILES | Potency |
| --- | --- |
| C=CCn1c(SC)nc2sc3c(c2c1=O)CCc1ccccc1-3 | inconclusive: 11.6 µM [activator, partial curve] |
| CCCN1CCN(CCCNC(=O)c2ccc3nc(N4CCC(C)CC4)sc3c2)CC1 | inconclusive: 0.731 µM [activator, full curve] |
| CC(=O)c1cnc(Nc2cccc(C)c2)s1 | inconclusive: 1.64 µM [activator, partial curve] |
| Cc1cc(NC(=O)CSc2nc3ccsc3c(=O)n2NC(=O)c2ccccc2)no1 | inconclusive: 13 µM [activator, partial curve, poor fit] |
| COc1ccc(-c2nc3nc(C)cc(C)n3c2Nc2c(C)cccc2C)cc1 | inconclusive: 29.1 µM [falling, single point] |
| C[C@H]1Oc2ccccc2C(=O)C1C(=O)c1ccccc1 (stereo not given in full) | inconclusive: 0.164 µM [activator, full curve, poor fit] |
| COc1ccc(N=c2oc3ccc(OC)cc3cc2-c2nc3ccccc3[nH]2)cc1 | inconclusive: 1.84 µM [activator, full curve, poor fit] |
| CCOC(=O)c1c(NC(=O)CS(=O)(=O)c2cn(CC)c3ccccc23)sc2c1CCCCC2 | inconclusive: 29.1 µM [falling, single point] |
| CCc1cc2c(=O)nc3n(c2s1)Cc1ccccc1/C3=C(/O)c1ccccc1Cl | inconclusive: 3.26 µM [activator, full curve, poor fit] |
| CCN(CC)C(=O)[C@H]1C[C@H](CC(=O)NC/C=C(\C)CCC=C(C)C)C(=O)N2CCc3c([nH]c4ccc(Cl)cc34)[C@]12C | inconclusive: 29.1 µM [falling, single point] |
| O=[N+]([O-])c1ccccc1/C=N\N1CCN(c2ccccc2)CC1 | inconclusive: 29.1 µM [activator, single point] |
| N/C(=N\OC(=O)c1ccccc1)c1cccnc1 | inconclusive: 18.4 µM [activator, partial curve] |
| Nc1nnc(SCC(=O)Nc2sc3c(c2C(=O)c2ccccc2)CCCC3)s1 | inconclusive: 18.4 µM [falling, single point] |
| CCc1ccccc1NC(=O)Cn1nc2c3cc(F)ccc3n(Cc3cccc(C)c3)cc-2c1=O | inactive |
| N#Cc1c(-c2ccccc2)cc(-c2ccccc2)[nH]c1=O | inactive |
| COc1cc(/C=N/NC(=O)c2nonc2C)ccc1O | inactive |
| O=C(NC(=S)NCC1CCCO1)c1ccc(Br)o1 (stereo not given) | inconclusive: 20.6 µM [activator, partial curve] |
| CCOc1ccc2[nH]c3c(NCCOC)ncnc3c2c1 | inconclusive: 2.91 µM [activator, full curve, poor fit] |
| Cc1nc2cc(NC(=O)N3c4ccccc4CC3C)ccc2n1C (stereo not given) | inconclusive: 0.517 µM [activator, partial curve] |
| CC(C)CN(CC(C)C)S(=O)(=O)N1CCC(C(=O)NCCc2ccc(Cl)cc2)CC1 | inconclusive: 29.1 µM [falling, single point] |
| O=C(N/N=C/c1ccc(Br)o1)c1ccc2c(c1)OCCO2 | inconclusive: 8.2 µM [activator, partial curve, poor fit] |
| O=C1C=C(c2ccc(O)cc2)C[C@@H](c2ccc3c(c2)OCO3)C1 | inconclusive: 18.4 µM [falling, single point] |

| SMILES | Potency |
| --- | --- |
| CC1CCC(C(C)C)C(OC(=O)COC(=O)c2cccn2C)C1 (stereo not given) | inactive |
| O=C(CCl)Nc1ccc(Sc2ccc(NC(=O)CCl)cc2)cc1 | inconclusive: 18.4 µM [activator, partial curve] |
| O=S(=O)(c1cccc(COc2ccc(Cl)cc2Cl)c1)N1CCOCC1 | inconclusive: 25.9 µM [falling, single point] |
| NC(=O)c1nsc(C(=O)N(Cc2ccccc2Cl)C(C(=O)NCC2CCCO2)c2ccc(O)cc2)c1N (stereo not given) | inconclusive: 14.6 µM [activator, single point] |
| C/C(=N\NC(=O)c1ccc(-c2ccccc2)cc1)C1C(=O)c2ccccc2C1=O | inconclusive: 18.4 µM [falling, single point] |
| O=C(NCCCN1CCCC1=O)c1ccccc1OCc1ccc(Cl)cc1Cl | inconclusive: 29.1 µM [falling, single point] |
| COC(=O)C1=CN(c2ccc(OC)cc2)C=C(C(=O)OC)C1c1ccc([N+](=O)[O-])cc1 | inconclusive: 2.06 µM [falling, partial curve, poor fit] |
| Cc1cc(C)cc(OCCSc2nc3ccc(NC(=O)c4ccc5c(c4)OCO5)cc3s2)c1 | inactive |
| COC(=O)c1c(C)[nH]c(C(=O)OCC(=O)N(CC(C)C)c2c(N)n(Cc3ccccc3)c(=O)[nH]c2=O)c1C | inconclusive: 25.9 µM [falling, partial curve] |
| CCN1CCN(S(=O)(=O)c2ccc(Cl)c(C(=O)NCc3nc4ccccc4[nH]3)c2)CC1 | inconclusive: 18.4 µM [falling, partial curve, poor fit] |
| O=C(O)C1CC(c2ccccc2)=Nc2ccccc2S1 (stereo not given) | inconclusive: 2.59 µM [activator, partial curve] |
| CCc1ccc2[nH]cc(S(=O)(=O)c3ccc(C(C)C)cc3)c(=O)c2c1 | inactive |
| O/C(=C\c1ccc2ccccc2n1)c1ccc(O)cc1O | inconclusive: 18.4 µM [activator, partial curve] |
| CC1CCN(C(=O)COC(=O)c2c[nH]c3ccccc23)CC1 | inconclusive: 14.6 µM [activator, partial curve, poor fit] |
| CC(NC(=O)NC(=O)c1cccc(Cl)c1)c1ccccc1 (stereo not given) | inconclusive: 0.0052 µM [falling, full curve, poor fit] |
| Oc1ccccc1-c1nc(-c2cccs2)c(-c2cccs2)[nH]1 | inconclusive: 29.1 µM [falling, single point] |
| CC1=NN(C(N)=S)C(=O)C1N=Nc1ccccc1 (stereo not given) | inconclusive: 8.2 µM [activator, partial curve] |
| Nc1c(O)cccc1C(=O)O | inconclusive: 20.6 µM [falling, single point] |
| COc1ccc(NS(=O)(=O)c2cccc(C(=O)Nc3ccccc3C(=O)O)c2)cc1 | inactive |
| COc1ccc(-c2nnn(CC#N)n2)cc1OC | inconclusive: 29.1 µM [activator, single point] |
| CC1=NN(c2ccc(C(=O)O)cc2)C(=O)CC1 | inconclusive: 18.4 µM [activator, single point] |
| O=C(Nc1ccccc1)C1=C[C@@H](c2ccc(C(F)(F)F)cc2)C[C@@H](OCc2ccc(CO)cc2)O1 | inconclusive: 23.1 µM [falling, single point] |

Three structures already listed, ordered by count of non-hydrogen atoms, largest number first.

| SMILES | Potency |
| --- | --- |
| O=S(=O)(c1cccc(COc2ccc(Cl)cc2Cl)c1)N1CCOCC1 | inconclusive: 25.9 µM [falling, single point] |
| CC1=NN(C(N)=S)C(=O)C1N=Nc1ccccc1 (stereo not given) | inconclusive: 8.2 µM [activator, partial curve] |
| Nc1c(O)cccc1C(=O)O | inconclusive: 20.6 µM [falling, single point] |

The list continues:

| SMILES | Potency |
| --- | --- |
| CCc1ccc(OCC(=O)Nc2ccc3c(c2)c2ccccc2n3CC)cc1 | inconclusive: 29.1 µM [falling, single point] |
| O=C(NCC(=O)N1CCN(c2ncccn2)CC1)c1ccc(F)cc1 | inconclusive: 11.6 µM [activator, partial curve] |
| NS(=O)(=O)c1ccc(NC(=O)COC(=O)C2(c3ccccc3F)CCCC2)cc1 | active: 20.6 µM |
| N#Cc1c[nH]n2c(NC3CCCCC3)c(-c3ccc(F)cc3)nc12 | inactive |
| Fc1cnc(N2CCN(c3ccccc3)CC2)nc1N1CCN(c2ccccc2)CC1 | inconclusive: 29.1 µM [falling, single point] |
| COc1cccc2sc(NNC(=O)C3=COCCO3)nc12 | inactive |
| COc1cc2cc(C#N)c(SCC(=O)OC(C)C)nc2cc1OC | inconclusive: 29.1 µM [falling, single point] |
| C=CCC[C@@H](Cc1ccc(F)cc1)C(=O)OCCNC(=O)[C@@H](CC=C)CC(=O)N(CCO)Cc1ccccc1 | inconclusive: 18.4 µM [falling, partial curve, poor fit] |
| CCCOc1ccc(C(=O)NNC(=S)NC(=O)c2ccccc2[N+](=O)[O-])cc1 | inconclusive: 29.1 µM [falling, single point] |
| CCCN(CCC)C1=N/C(=C\c2ccco2)C(=O)N1c1ccccc1 | inactive |
| Cc1ccc(SCc2ccc(C(=O)N3CCCC3)cc2)cc1 | inconclusive: 5.17 µM [activator, full curve, poor fit] |
| COc1ccc(F)cc1S(=O)(=O)Nc1cc2c3c(c1)CCC(=O)N3CCC2 | inconclusive: 25.9 µM [falling, partial curve] |
| O=C(c1cc2ccccc2o1)N1CCN(c2ccccc2Cl)CC1 | inconclusive: 7.31 µM [falling, partial curve, poor fit] |
| COc1ccc(Nc2nc(-c3sc(C)nc3C)cs2)c(OC)c1 | inconclusive: 29.1 µM [falling, partial curve, poor fit] |
| O=C(NNC(=O)c1cc2ccccc2cc1O)NC1CCCCC1 | inconclusive: 29.1 µM [activator, single point] |
| N#Cc1ccccc1OCC(=O)NC(=O)NCc1ccco1 | inconclusive: 2.91 µM [activator, full curve] |
| Brc1ccc(C2=CC(c3ccco3)n3ncnc3N2)cc1 (stereo not given) | inconclusive: 1.84 µM [activator, partial curve] |
| O=C(CCCN1C(=O)C(c2ccccc2)Oc2cccnc21)NCCc1ccc(Cl)cc1 (stereo not given) | inactive |
| CCOc1c2c(c(-c3ccc4c(c3)OCO4)c3cc(OC)c(OC)cc13)C(=O)OC2 | active: 1.84 µM |
| Cc1ccc(NCc2ccc(O)c3ncccc23)cc1 | inconclusive: 29.1 µM [falling, single point] |
| CCC1CCCCN1C(=O)CCS(=O)(=O)c1ccccc1 (stereo not given) | inconclusive: 13 µM [activator, partial curve] |

Quoted from the listing.
Under Potency, NS(=O)(=O)c1ccc(NC(=O)COC(=O)C2(c3ccccc3F)CCCC2)cc1 has active: 20.6 µM
Under Potency, Cc1ccc(NCc2ccc(O)c3ncccc23)cc1 has inconclusive: 29.1 µM [falling, single point]
